Measurements reported in PubChem BioAssay AID1671190 (National Center for Advancing Translational Sciences (NCATS), 2021).
Several values for one entry are separate records, joined by “and”; a condition that tells them apart may be missing. Equal entries are not always repeated. The whole screen tested about 580,000 compounds, of which about 6,100 (1.1%) were called active. The inconclusive results got no clear call from the source; some entries with a clear call stand among them for comparison. Calls follow the shape of the dose curve; as a rule, active = well fitted inhibition curve with a large enough effect; inconclusive = small, poorly fitted or top-dose-only effect, or another doubt; inactive = no such curve, though single readings can be large or run the other way. A potency beside an inconclusive call is a rough fit, not a confirmed value.

By UniProt entry, the sequences of proteins in these tests, tags left out. Where a name states a change or a piece, a line headed by the entry shows the natural chain unless it says otherwise.
UniProt P18054: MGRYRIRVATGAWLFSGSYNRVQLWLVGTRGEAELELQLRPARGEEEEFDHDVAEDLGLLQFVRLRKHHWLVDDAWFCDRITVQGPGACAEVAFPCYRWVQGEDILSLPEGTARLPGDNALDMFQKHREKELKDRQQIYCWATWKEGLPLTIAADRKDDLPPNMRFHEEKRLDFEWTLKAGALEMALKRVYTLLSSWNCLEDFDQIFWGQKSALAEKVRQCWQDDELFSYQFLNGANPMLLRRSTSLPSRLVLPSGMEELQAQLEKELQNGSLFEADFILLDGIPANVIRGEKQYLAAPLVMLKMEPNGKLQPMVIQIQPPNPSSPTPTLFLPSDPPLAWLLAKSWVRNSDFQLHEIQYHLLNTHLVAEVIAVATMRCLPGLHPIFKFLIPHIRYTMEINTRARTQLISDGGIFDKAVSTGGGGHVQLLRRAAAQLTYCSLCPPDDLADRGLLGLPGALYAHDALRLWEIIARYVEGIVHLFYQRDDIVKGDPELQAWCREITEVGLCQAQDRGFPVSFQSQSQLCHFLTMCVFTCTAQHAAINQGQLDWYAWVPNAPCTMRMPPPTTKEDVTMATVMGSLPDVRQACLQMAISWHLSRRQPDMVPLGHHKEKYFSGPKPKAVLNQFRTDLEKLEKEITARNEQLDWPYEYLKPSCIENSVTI

target: Polyunsaturated fatty acid lipoxygenase ALOX12 (Homo sapiens) (UniProt P18054); experiment: Primary qHTS assay for inhibitors of human arachidonate 12S-lipoxygenase (ALOX12): Round 2; conditions: purified 12hLO, xylenol orange hydroperoxide absorbance; activity change, negative = inhibition: at 108 µM (top of the series) unless noted
Procedure, shortened: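 Purified human 12hLO (150 nM final) in 25 mM Hepes, 0.01% Triton X-100, pH 7.0 was preincubated 15 min at room temperature with compound. Then 40 uM arachidonic acid was added, 30 min. Hydroperoxide was read by Fe-XO absorbance ratio 573/405 nm.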
% is scaled to controls: 0 for no effect and ±100 for the full control effect; potency is read from the fitted curve at half-maximal effect.

SMILES	Potency	activity change, negative = inhibition
Cc1nc2c(-c3ccccc3)c(C)nn2c(C)c1CCC(=O)NCc1ccco1	inconclusive: 50.1 µM [inhibitor, partial curve, poor fit]	
COc1ccccc1CNC(=O)c1c(O)nc2cc(C)ccn2c1=O		inconclusive: -30.6% [inhibitor]
C=CCOC(=O)/C(C#N)=C\c1cc2ccccc2nc1N1CCOCC1	inconclusive: 39.8 µM [inhibitor, partial curve, poor fit]	
CCN1c2cc(C(=O)NCc3ccccc3C)ccc2C(=O)N2CCCCCC21 (configuration not stated)	inactive	
Cc1cc(C)c(S(=O)(=O)N2CCN(C(=O)C(C)Cn3nc(C)nc3C)CC2)c(C)c1 (configuration not stated)	inactive	
COC(=O)[C@]12CCCCC=C1N(Cc1cccc3ccccc13)C(=O)[C@H](CC(=O)NCc1cccs1)C2	inactive	
Cc1ccc(SCc2cc(=O)n3[nH]c(C)nc3n2)cc1	inconclusive: 126 µM [inhibitor, single point]	
O=C(C1CCN(c2nc3ccccc3[nH]2)CC1)N1CCN(c2cccc(Cl)c2)CC1	inconclusive: 100 µM [inhibitor, partial curve, poor fit]	
CC(C)Oc1ccc(NC(=O)c2cc3cc(Br)ccc3oc2=O)cc1	inactive	
CC1(C)CC(=O)c2cc(C#N)c(SCc3cc4c(cc3Cl)OCO4)nc2C1	inconclusive: 100 µM [inhibitor, single point]	
NC(Cc1ccc(Cl)cc1)C(=O)O (configuration not stated)	inconclusive: 3.98 µM [inhibitor, full curve, poor fit]	
CN(C)CCCN1c2ccc([N+](=O)[O-])cc2CCc2cc([N+](=O)[O-])ccc21	active: 31.6 µM	
CCc1ccc2occ(CC(=O)Nc3sc4c(c3C(=O)OC)CCC4)c2c1	inactive	
CCOC(=O)CC1=C(C(=O)OCC)C(c2ccc(OC)c(OC)c2)C(C#N)=C(N)O1 (configuration not stated)	inconclusive: 44.7 µM [inhibitor, partial curve, poor fit]	
CCCCCc1ccc(-c2ccc(-c3ccc(C#N)cc3)nc2)cc1	inactive	
CCn1c(SCCC(=O)Nc2ccccc2)nnc1-c1ccc(OC)cc1	inactive	
Nc1nc2c(Br)ccc(Br)c2cc1C(=O)NCc1cccc2ccccc12	inconclusive: 4.47 µM [inhibitor, full curve, poor fit]	
COc1cc(Cl)ccc1NC(=S)N(CCCN1CCOCC1)Cc1cn(C)c2ccccc12	inactive	
CCCN(Cc1cc2ccc(C)cc2[nH]c1=O)S(=O)(=O)c1ccc(Cl)cc1	inactive	
O=C(COC(=O)c1ccc(O)cc1O)Nc1ncc(Cl)cc1Cl	inconclusive: 14.1 µM [inhibitor, partial curve, poor fit]	
COCCNC(=O)[C@H]1C[C@H](Oc2cccnc2)CN1C(=O)Cc1ccccc1	inactive	
COC(=O)C1=C(C)N(Cc2ccc(OC)c(OC)c2)C(=O)C1	inactive	
O=C(NNC(=O)c1ccc(Oc2cc(Cl)cc(Cl)c2)o1)c1ccccc1	inactive	

SMILES	Potency	activity change, negative = inhibition
CC[C@@H]1C=C(C(=O)O)[C@H](c2ccc(Cl)c(Cl)c2)N1S(=O)(=O)c1ccc(C)cc1	inconclusive: 44.7 µM [inhibitor, partial curve, poor fit]	
N=c1c(S(=O)(=O)c2ccccc2)cc2c(=O)n3ccccc3nc2n1C1CCCCC1	inactive	
Cc1cc2nc(/N=C(\N)NC(=O)N3c4ccccc4Sc4ccccc43)nc(C)c2cc1C	inconclusive: 39.8 µM [inhibitor, partial curve] and inconclusive: 89.1 µM [inhibitor, partial curve, poor fit]	
Cn1c(=O)c(S(=O)C2CCCCC2)c(O)c2ccccc21 (configuration not stated)	inconclusive: 56.2 µM [inhibitor, partial curve, poor fit]	
Cc1sc2nc(-c3ccccn3)[nH]c(=O)c2c1-c1ccccc1	inconclusive: 44.7 µM [inhibitor, partial curve, poor fit]	
Cc1cc(C2(c3ccc(O)c(C)c3)OC(=O)c3ccccc32)ccc1O	inconclusive: 44.7 µM [inhibitor, partial curve, poor fit]	
Cn1ncc2c(C(=O)NCCc3ccc(Cl)cc3)cc(-c3ccc([S+](C)(=O)[O-])cc3)nc21	inconclusive: 50.1 µM [inhibitor, partial curve, poor fit]	
COC(=O)c1nn(-c2cccc(C(F)(F)F)c2)c(=O)cc1Sc1ccccn1	inconclusive: 44.7 µM [inhibitor, partial curve, poor fit]	
COc1ccc(-c2nccc3c(=O)cc(-c4cccnc4)oc23)cc1OC	inconclusive: 50.1 µM [inhibitor, partial curve]	
Cc1cccc(N2CCN(c3ncnc4onc(C)c34)CC2C)c1 (configuration not stated)	inconclusive: 112 µM [inhibitor, partial curve, poor fit]	
Fc1cccc(CN(C2=NCCN2)c2c(Cl)cccc2Cl)c1	inactive	
CCOC(=O)C1=C(C)NC(=O)NC1c1cn(-c2ccccc2)nc1-c1ccc(OC(C)C)c(C)c1 (configuration not stated)	inconclusive: 79.4 µM [inhibitor, partial curve, poor fit]	
Cn1ccc2c(N(c3ccccc3)C3CCCCC3)cc3c(c21)C1CCC3O1 (configuration not stated)	inconclusive: 50.1 µM [inhibitor, single point]	
Cc1cnc(NC(=O)COc2ccccc2Cl)s1	inactive	
COc1ccc(-c2c(NC(=O)c3cccc([N+](=O)[O-])c3)oc3ccc(Cl)cc3c2=O)cc1OC	inconclusive: 39.8 µM [inhibitor, partial curve, poor fit]	
O=C(Cc1ccccc1)NC(NNc1ccccc1)(C(F)(F)F)C(F)(F)F	inconclusive: 28.2 µM [inhibitor, partial curve, poor fit]	
COc1cc(C(=O)NCC(=O)N/N=C/c2ccccn2)cc(OC)c1OC	inactive	
CCOc1ccc(S(=O)(=O)NCC(c2ccc(N(C)C)cc2)N2CCc3ccccc32)cc1 (configuration not stated)	inactive	
CN1CCN(c2ncnc3ccc(-c4ccoc4)cc23)CC1	inactive	
O=C(NCCc1nc(-c2cccnc2)no1)c1coc2c1C(=O)CCC2	inactive	
Cc1ccc(C2Cn3nnc(-c4noc(Cc5ccc(F)cc5)n4)c3CO2)cc1 (configuration not stated)	inactive	
O=C(CSc1cc(Cl)ccc1Cl)N1CCN(C(=O)c2cccs2)CC1	inconclusive: 112 µM [inhibitor, single point]	
O=C(Nc1ccc(Cl)cc1)C(Cl)C(=O)c1ccccc1 (configuration not stated)	inconclusive: 39.8 µM [inhibitor, partial curve, poor fit]	

Reprinted at random: 5 records from the list, in no set order.
SMILES	Potency	activity change, negative = inhibition
Cc1sc2nc(-c3ccccn3)[nH]c(=O)c2c1-c1ccccc1	inconclusive: 44.7 µM [inhibitor, partial curve, poor fit]	
CCCCCc1ccc(-c2ccc(-c3ccc(C#N)cc3)nc2)cc1	inactive	
Cn1ncc2c(C(=O)NCCc3ccc(Cl)cc3)cc(-c3ccc([S+](C)(=O)[O-])cc3)nc21	inconclusive: 50.1 µM [inhibitor, partial curve, poor fit]	
C=CCOC(=O)/C(C#N)=C\c1cc2ccccc2nc1N1CCOCC1	inconclusive: 39.8 µM [inhibitor, partial curve, poor fit]	
CN(C)CCCN1c2ccc([N+](=O)[O-])cc2CCc2cc([N+](=O)[O-])ccc21	active: 31.6 µM	

Carrying on:

SMILES	Potency	activity change, negative = inhibition
CCC1c2ccsc2CCN1C(=O)CC(c1ccccc1)c1ccccc1 (configuration not stated)	inconclusive: 5.62 µM [inhibitor, full curve, poor fit]	
CCOc1ccc(NC(=S)N2CCC(C(=O)c3ccc(F)cc3)CC2)cc1	inconclusive: 39.8 µM [inhibitor, partial curve, poor fit]	
CC1=C(C(=O)N(C(C)C)C(C)C)CC(CC(=O)NC(c2ccccc2)c2ccccc2)C(=O)N1CCCN1CCCC1=O (configuration not stated)	inactive	
Cc1ccc(O[C@H]2COCC[C@H]2NC(=O)Cc2c(F)cccc2Cl)cn1	inconclusive: 89.1 µM [inhibitor, partial curve, poor fit]	
COc1ccc(-c2nc(CSCC(=O)NCc3cccnc3)c(C)o2)cc1OC	inactive	
O=C1NC[C@H](Cc2ccccc2)N(C[C@@H]2CCCN2C[C@H](Cc2ccc(O)cc2)N2C[C@H](Cc3ccc(O)cc3)N(CCc3ccccc3)C(=O)C2=O)C1=O	inconclusive: 50.1 µM [inhibitor, partial curve, poor fit]	
O=S1(=O)CC=C(CBr)C1	inconclusive: 50.1 µM [inhibitor, partial curve, poor fit]	
COc1ccc(-n2nnnc2C(c2ccccc2OC(F)(F)F)N2CCN(C/C=C/c3ccccc3)CC2)cc1 (configuration not stated)	inactive	
C[C@@H]1CNC(=O)c2c(C(=O)Nc3ccc(CNC(=O)OC(C)(C)C)cc3)ncn21	inactive	
COc1ccc(/C=C/C(=O)NCCSCc2ccco2)cc1OC	inactive	
CCOc1ccc(-c2nonc2NC(=O)COc2ccccc2)cc1		inconclusive: -30.1% [inhibitor]
CCCc1cnc2c(c1SCC(=O)Nc1cccc(C)c1C)c(=O)n(C)c(=O)n2C	inactive	
COc1cccc(Cl)c1NC(=O)N1CCc2c([nH]c3ccccc23)C1C(F)(F)F (configuration not stated)	inconclusive: 158 µM [inhibitor, single point]	
Cc1ccc(C(c2c(NC(=O)c3ccco3)sc(C)c2C)N2CCOCC2)cc1 (configuration not stated)	inconclusive: 56.2 µM [inhibitor, partial curve, poor fit]	
CCOC(=O)c1ccc(NC(=O)c2c(NCc3cc(OC)c(OC)cc3OC)sc3c2CCCC3)cc1	inconclusive: 39.8 µM [inhibitor, partial curve, poor fit]	
C[C@@H]1CN([C@H](C)CO)S(=O)(=O)c2ccc(Br)cc2O[C@@H]1CN(C)C(=O)CN1CCOCC1	inconclusive: 44.7 µM [inhibitor, single point]	
CN(CC(=O)NC(=O)NCc1ccco1)Cc1cccc(Cl)c1Cl	inconclusive: 14.1 µM [inhibitor, full curve]	
CCN(CC)CCNC(=O)c1cc2c(=O)n(CC)c3ccccc3c2s1	inactive	
CC1(C)Cc2c(C#N)c(N)n(-c3ccccc3)c(=S)c2CO1	inconclusive: 22.4 µM [inhibitor, full curve, poor fit]	
N#Cc1c(N2CCN(C(=O)C(=O)NCCO)CC2)nc(-c2ccccc2)c2c1CCCC2	inactive	
Cn1c(/C=N/O)nc2ccccc21	inactive	
